{
  "source": "patent US20230364104A1",
  "about": "“PHARMACEUTICAL COMBINATION FOR THE TREATMENT OF HUMAN HYPOCHOLINERGIC DISORDERS” (priority 2020, published 2023)",
  "origin": "cited, not measured here",
  "tested_on": "myocardial tissue",
  "conditions": "1 μM; cited from earlier work",
  "note": "At least one structure is not confirmed: it was looked up by name or label, or the drawing left a doubt.",
  "data": [
    {"smiles": "CC(=O)OCC[N+](C)(C)C", "note": "[acetylcholine]", "values": [
      {"measurement": "effect on automatic activity in the myocardium", "result": "suppressed automatic activity in the myocardium"}
    ]}
  ]
}
